# Source: the supplement of paper PMC8728848
# The other results are listed elsewhere or left out.
# B1: NK2 (Sus scrofa) (peptide)
# chain: KILRGVCKKIMRTFLRRISKDILTGKK
# What was measured:
# Experiment in all cases: glycan array binding signal (z-score within array); higher = stronger binding
# Conditions in all cases: glycan notation: IUPAC condensed, linker removed
# [1] = biological target: Man(a1-2)Man(a1-2)Man(a1-3)Man
# Outline: (§1)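 Glycan array binding is given as a within-array Z-score, which can be read as non-binding when negative. The arrays, 3228 of them, came from the Consortium for Functional Glycomics database and were retained only where the protein sequence was available. Z-scores were averaged across arrays of the same protein sequence at different concentrations or buffers and across linkers.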
# [2] = biological target: Man(a1-2)Man(a1-2)Man(a1-6)[Man(a1-3)]Man
# Outline: as §1
# Man(a1-2)Man(a1-3)Man = biological target: Man(a1-2)Man(a1-3)Man
# Outline: as §1
# [3] = biological target: Man(a1-2)Man(a1-3)[Man(a1-2)Man(a1-6)]Man
# Outline: as §1
# [4] = biological target: Man(a1-2)Man(a1-3)[Man(a1-2)Man(a1-6)]Man(a1-6)[Man(a1-2)Man(a1-2)Man(a1-3)]Man
# Outline: as §1
# [5] = biological target: Man(a1-2)Man(a1-3)[Man(a1-2)Man(a1-6)]Man(a1-6)[Man(a1-2)Man(a1-2)Man(a1-3)]Man(b1-4)GlcNAc(b1-4)GlcNAc
# Outline: as §1
# [6] = biological target: Man(a1-2)Man(a1-3)[Man(a1-6)]Man(a1-6)[Man(a1-2)Man(a1-3)]Man(b1-4)GlcNAc(b1-4)GlcNAc
# Outline: as §1
# [7] = biological target: Man(a1-2)Man(a1-6)[Man(a1-3)]Man(a1-6)[Man(a1-2)Man(a1-2)Man(a1-3)]Man
# Outline: as §1
# [8] = biological target: Man(a1-2)Man(a1-6)[Man(a1-3)]Man(a1-6)[Man(a1-2)Man(a1-2)Man(a1-3)]Man(b1-4)GlcNAc(b1-4)GlcNAc
# Outline: as §1
# Man(a1-3)[Man(a1-6)]Man = biological target: Man(a1-3)[Man(a1-6)]Man
# Outline: as §1
# [9] = biological target: Man(a1-3)[Man(a1-6)]Man(a1-6)[Man(a1-2)Man(a1-3)]Man(b1-4)GlcNAc(b1-4)GlcNAc
# Outline: as §1
# [10] = biological target: Man(a1-3)[Man(a1-6)]Man(a1-6)[Man(a1-3)]Man
# Outline: as §1
# [11] = biological target: Man(a1-3)[Man(a1-6)]Man(a1-6)[Man(a1-3)]Man(b1-4)GlcNAc(b1-4)GlcNAc
# Outline: as §1
# [12] = biological target: Man(a1-3)[Man(a1-6)]Man(b1-4)GlcNAc(b1-4)GlcNAc
# Outline: as §1
# [13] = biological target: Man(a1-3)[Man(a1-6)]Man(b1-4)GlcNAc(b1-4)[Fuc(a1-6)]GlcNAc
# Outline: as §1
# Man(a1-6)Man = biological target: Man(a1-6)Man
# Outline: as §1
# Man(b1-4)GlcNAc = biological target: Man(b1-4)GlcNAc
# Outline: as §1
# MurNAc(b1-4)GlcNAc = biological target: MurNAc(b1-4)GlcNAc
# Outline: as §1
# Neu5Ac(a2-3)Gal = biological target: Neu5Ac(a2-3)Gal
# Outline: as §1
# [14] = biological target: Neu5Ac(a2-3)Gal(b1-3)GalNAc
# Outline: as §1
# [15] = biological target: Neu5Ac(a2-3)Gal(b1-3)GalNAc(b1-3)Gal(a1-4)Gal(b1-4)Glc
# Outline: as §1
# [16] = biological target: Neu5Ac(a2-3)Gal(b1-3)GalNAc(b1-4)Gal(b1-4)Glc
# Outline: as §1
# [17] = biological target: Neu5Ac(a2-3)Gal(b1-3)GalNAc(b1-4)[Neu5Ac(a2-3)]Gal(b1-4)Glc
# Outline: as §1
# [18] = biological target: Neu5Ac(a2-3)Gal(b1-3)GalNAc(b1-4)[Neu5Ac(a2-8)Neu5Ac(a2-3)]Gal(b1-4)Glc
# Outline: as §1
# [19] = biological target: Neu5Ac(a2-3)Gal(b1-3)GalNAc6S
# Outline: as §1
# [20] = biological target: Neu5Ac(a2-3)Gal(b1-3)GlcNAc
# Outline: as §1
# [21] = biological target: Neu5Ac(a2-3)Gal(b1-3)GlcNAc(b1-2)Man
# Outline: as §1
# [22] = biological target: Neu5Ac(a2-3)Gal(b1-3)GlcNAc(b1-2)Man(a1-3)[GlcNAc(b1-4)][Neu5Ac(a2-3)Gal(b1-3)GlcNAc(b1-2)Man(a1-6)]Man(b1-4)GlcNAc(b1-4)GlcNAc
# Outline: as §1
# [23] = biological target: Neu5Ac(a2-3)Gal(b1-3)GlcNAc(b1-2)Man(a1-3)[Neu5Ac(a2-3)Gal(b1-3)GlcNAc(b1-2)Man(a1-6)]Man(b1-4)GlcNAc(b1-4)GlcNAc
# Outline: as §1
# [24] = biological target: Neu5Ac(a2-3)Gal(b1-3)GlcNAc(b1-2)[Neu5Ac(a2-3)Gal(b1-3)GlcNAc(b1-4)]Man(a1-6)[Neu5Ac(a2-3)Gal(b1-3)GlcNAc(b1-2)Man(a1-3)]Man(b1-4)GlcNAc(b1-4)GlcNAc
# Outline: as §1
# [25] = biological target: Neu5Ac(a2-3)Gal(b1-3)GlcNAc(b1-3)Gal(b1-3)GlcNAc
# Outline: as §1
# [26] = biological target: Neu5Ac(a2-3)Gal(b1-3)GlcNAc(b1-3)Gal(b1-4)GlcNAc
# Outline: as §1
# [27] = biological target: Neu5Ac(a2-3)Gal(b1-3)GlcNAc(b1-3)GalNAc
# Outline: as §1
# [28] = biological target: Neu5Ac(a2-3)Gal(b1-3)GlcNAc(b1-6)GalNAc
# Outline: as §1
# [29] = biological target: Neu5Ac(a2-3)Gal(b1-3)GlcNAc6S
# Outline: as §1
# [30] = biological target: Neu5Ac(a2-3)Gal(b1-3)[Fuc(a1-4)]GlcNAc
# Outline: as §1
# [31] = biological target: Neu5Ac(a2-3)Gal(b1-3)[Fuc(a1-4)]GlcNAc(b1-3)Gal(b1-3)[Fuc(a1-4)]GlcNAc
# Outline: as §1
# [32] = biological target: Neu5Ac(a2-3)Gal(b1-3)[Fuc(a1-4)]GlcNAc(b1-3)Gal(b1-4)[Fuc(a1-3)]GlcNAc
# Outline: as §1
# [33] = biological target: Neu5Ac(a2-3)Gal(b1-3)[GlcNAc(b1-6)]GalNAc
# Outline: as §1
# [34] = biological target: Neu5Ac(a2-3)Gal(b1-3)[Neu5Ac(a2-3)Gal(b1-4)]GlcNAc
# Outline: as §1
# [35] = biological target: Neu5Ac(a2-3)Gal(b1-3)[Neu5Ac(a2-6)]GalNAc
# Outline: as §1
# [36] = biological target: Neu5Ac(a2-3)Gal(b1-3)[Neu5Ac(a2-6)]GlcNAc(b1-3)[Fuc(a1-3)[Gal(b1-4)]GlcNAc(b1-6)]Gal(b1-4)Glc
# Outline: as §1
# [37] = biological target: Neu5Ac(a2-3)Gal(b1-3)]Neu5Ac(a2-3)Gal(b1-4)]GlcNAc
# Outline: as §1
# Neu5Ac(a2-3)Gal(b1-4)Glc = biological target: Neu5Ac(a2-3)Gal(b1-4)Glc
# Outline: as §1
# [38] = biological target: Neu5Ac(a2-3)Gal(b1-4)GlcNAc
# Outline: as §1
# [39] = biological target: Neu5Ac(a2-3)Gal(b1-4)GlcNAc(b1-2)Man
# Outline: as §1
# [40] = biological target: Neu5Ac(a2-3)Gal(b1-4)GlcNAc(b1-2)Man(a1-3)[GlcNAc(b1-2)Man(b1-4)GlcNAc(b1-2)Man(a1-6)]Man(b1-4)GlcNAc(b1-4)GlcNAc
# Outline: as §1
# [41] = biological target: Neu5Ac(a2-3)Gal(b1-4)GlcNAc(b1-2)Man(a1-3)[GlcNAc(b1-4)][Neu5Ac(a2-3)Gal(b1-4)GlcNAc(b1-2)Man(a1-6)]Man(b1-4)GlcNAc(b1-4)GlcNAc
# Outline: as §1
# [42] = biological target: Neu5Ac(a2-3)Gal(b1-4)GlcNAc(b1-2)Man(a1-3)[Neu5Ac(a2-3)Gal(b1-4)GlcNAc(b1-2)Man(a1-6)]Man(b1-4)GlcNAc(b1-4)GlcNAc
# Outline: as §1
# [43] = biological target: Neu5Ac(a2-3)Gal(b1-4)GlcNAc(b1-2)Man(a1-3)[Neu5Ac(a2-3)Gal(b1-4)GlcNAc(b1-2)Man(a1-6)]Man(b1-4)GlcNAc(b1-4)[Fuc(a1-6)]GlcNAc
# Outline: as §1
# [44] = biological target: Neu5Ac(a2-3)Gal(b1-4)GlcNAc(b1-2)Man(a1-3)[Neu5Ac(a2-6)Gal(b1-4)GlcNAc(b1-2)Man(a1-6)]Man(b1-4)GlcNAc(b1-4)GlcNAc
# Outline: as §1
# [45] = biological target: Neu5Ac(a2-3)Gal(b1-4)GlcNAc(b1-2)[Neu5Ac(a2-3)Gal(b1-4)GlcNAc(b1-4)]Man(a1-3)[GlcNAc(b1-4)][Neu5Ac(a2-3)Gal(b1-4)GlcNAc(b1-2)[Neu5Ac(a2-3)Gal(b1-4)GlcNAc(b1-6)]Man(a1-6)]Man(b1-4)GlcNAc(b1-4)GlcNAc
# Outline: as §1
binder,measurement,setting,value
B1,glycan array binding signal (z-score),[1],-0.819
same,glycan array binding signal (z-score),[2],0.695
same,glycan array binding signal (z-score),Man(a1-2)Man(a1-3)Man,-1.35
same,glycan array binding signal (z-score),[3],-1.11
same,glycan array binding signal (z-score),[4],-1.08
same,glycan array binding signal (z-score),[5],0.064
same,glycan array binding signal (z-score),[6],-0.846
same,glycan array binding signal (z-score),[7],-0.174
same,glycan array binding signal (z-score),[8],0.793
same,glycan array binding signal (z-score),Man(a1-3)[Man(a1-6)]Man,0.504
same,glycan array binding signal (z-score),[9],0.661
same,glycan array binding signal (z-score),[10],-0.864
same,glycan array binding signal (z-score),[11],0.793
same,glycan array binding signal (z-score),[12],-0.398
same,glycan array binding signal (z-score),[13],-0.122
same,glycan array binding signal (z-score),Man(a1-6)Man,0.253
same,glycan array binding signal (z-score),Man(b1-4)GlcNAc,-0.585
same,glycan array binding signal (z-score),MurNAc(b1-4)GlcNAc,-0.219
same,glycan array binding signal (z-score),Neu5Ac(a2-3)Gal,-0.22
same,glycan array binding signal (z-score),[14],-0.076
same,glycan array binding signal (z-score),[15],-0.526
same,glycan array binding signal (z-score),[16],-0.554
same,glycan array binding signal (z-score),[17],-0.1
same,glycan array binding signal (z-score),[18],-0.346
same,glycan array binding signal (z-score),[19],0.426
same,glycan array binding signal (z-score),[20],0.313
same,glycan array binding signal (z-score),[21],0.883
same,glycan array binding signal (z-score),[22],-0.374
same,glycan array binding signal (z-score),[23],-1.53
same,glycan array binding signal (z-score),[24],0.668
same,glycan array binding signal (z-score),[25],0.2
same,glycan array binding signal (z-score),[26],0.471
same,glycan array binding signal (z-score),[27],1.02
same,glycan array binding signal (z-score),[28],1.26
same,glycan array binding signal (z-score),[29],0.581
same,glycan array binding signal (z-score),[30],-0.121
same,glycan array binding signal (z-score),[31],-0.148
same,glycan array binding signal (z-score),[32],-0.135
same,glycan array binding signal (z-score),[33],1.32
same,glycan array binding signal (z-score),[34],-0.225
same,glycan array binding signal (z-score),[35],-0.067
same,glycan array binding signal (z-score),[36],-0.929
same,glycan array binding signal (z-score),[37],0.144
same,glycan array binding signal (z-score),Neu5Ac(a2-3)Gal(b1-4)Glc,-0.55
same,glycan array binding signal (z-score),[38],-0.275
same,glycan array binding signal (z-score),[39],1.2
same,glycan array binding signal (z-score),[40],-0.411
same,glycan array binding signal (z-score),[41],0.23
same,glycan array binding signal (z-score),[42],0.832
same,glycan array binding signal (z-score),[43],0.413
same,glycan array binding signal (z-score),[44],-0.878
same,glycan array binding signal (z-score),[45],0.273

# Part of the list above in another layout:
binder	measurement	setting	value
B1	glycan array binding signal (z-score)	[9]	0.661
same	glycan array binding signal (z-score)	[13]	-0.122
same	glycan array binding signal (z-score)	[15]	-0.526
same	glycan array binding signal (z-score)	[17]	-0.1
